# Results reported in the supplement of paper PMC7125110.
# ± gives the standard error. Many entries were measured with a wide error.
# B1: glmS ribozyme (parent)
# chain: AUAAAAGCGCCAGAACUACAGAAAUGUAGUUGACGAGGAGGAGGUUUAUCGAAUUUUCGGCGGAUGCCUCCAAA
# Variants of: B1
# Experiment: self-cleavage kobs at 640 uM GlcN6P; higher = faster cleavage; RNA array
# Details: with glucosamine-6-phosphate
# Method in brief: (§1)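 Barcoded ribozyme variants were transcribed in situ on sequenced MiSeq chips by E. coli RNA polymerase. At 37 °C, a hybridised Cy3 probe tracked them while glucosamine-6-phosphate (40 μM to 10 mM) in HEPES/KCl/Mg(OAc)2 buffer flowed in and tiles were imaged over ~14 h. Per-tile medians of signals normalised to baseline and to non-cleaving reference variants were fit to one- or two-exponential decays, giving kobs. kcat and KM came from weighted Michaelis–Menten fits across concentrations.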
row,Variant,self-cleavage kobs at 640 uM GlcN6P
1,AUAAAAGCGCCAAAACUACAGAAAUGUACUUGACGAGGAGGAGGUUUAUCGAAUUUUCGGCGGAUGCCUCCAAA [G13A G29C],2.96e-05 ± 1.5e-05 s⁻¹
2,AUAAAAGCGCCAAAACUACAGAAAUGUAGUUGACGAGGAGGAGGUUUAUCGAAUUUUCGGCGGAUACCUCCAAA [G13A G66A],5.2e-05 ± 3.6e-05 s⁻¹
3,AUAAAAGCGCCAGAGCUACAGAAAUGUAUUUGACGAGGGGGAGGUUUAUCGAAUUUUCGGCGGAUGUCUCCAAA [A15G G29U A39G C67U],8.54e-05 ± 4.4e-05 s⁻¹
4,AUAAAAGCGCUAGAACUACAGAAAUGUAGUUGACGAGGAGGAGGUUUAUCAAAUUUUCGGCGGAUGGCUCCAAA [C11U G51A C67G],7.99e-05 ± 4.5e-05 s⁻¹
5,AUAAAAGCGCCAGAUCUACAGAAAUGUAGUUGACGAGGAGGAGGUUUAUCGAAUUUUUGGCGGAUGCCUCCAAA [A15U C58U],2.23e-05 ± 1.4e-05 s⁻¹
6,AUAAAAGCGCCAGACCUACAGAAAUGUAGUAUACGAGGAGGAGGUUUAUCGAAUUUUCGGCGGAUGCCGCCAAA [A15C U31A G32U U69G],7.55e-05 ± 6.2e-05 s⁻¹
7,AUAAAAGCGCCAGCACUACAGAAAUGUAUUUGACGAGGAGGAGGUUUAUCGAAUUUUCGGAGGAUGCUUCCAAA [A14C G29U C61A C68U],2.73e-05 ± 2.2e-05 s⁻¹
8,AUAAAAGCGCUAGAACUACAGAAAUGUAGUUGACGAGGAUGAGGUUUAUCGAAUUUUCGGCGGAUGCCUUCAAA [C11U G40U C70U],3.92e-05 ± 2.6e-05 s⁻¹
9,AUAAAAGCGCCGGAACUACAGAAAUGUAGUUGACGAGGAGGAGGUUUAUCGAAUUUUCGGCGGAUGCGUCCAAA [A12G C68G],2.44e-05 ± 2.2e-05 s⁻¹
10,AUAAAAGCGCCAGUACUACAGAAAUGUAGUUGACGAGGAGGAGGUCGAUCGAAUUUUCGGCGGAUGCCUCCAAA [A14U U46C U47G],2.68e-05 ± 1.4e-05 s⁻¹
11,AUAAAAGCGCCAGUACUACAGAAAUGUAGUUUACGAGGAGGAGGUUUAUCGAAUUUUCGGCGGAUGCCUCAAAA [A14U G32U C71A],3.75e-05 ± 2.5e-05 s⁻¹
12,AUAAAAGCGCCUGAACUACAGAAAUGUAGCUGACGAGGAGGAGGUUUAUCGAAUUUUCAGCAGAUGCUUCCAAA [A12U U30C G59A G62A C68U],2.33e-05 ± 1.8e-05 s⁻¹
13,AUAAAAGCGCCGGAUCUACAGAAAUGUAGUUGACGAGGAGGAGGUUUAUCGAAUUUUCGGCGGAUGCCUCGAAA [A12G A15U C71G],2.84e-05 ± 1.5e-05 s⁻¹
14,AUAAAAGCGCCAGAGUUACAGAAAUGUAGUUGACGAGGAGGAGGUUUUUCGAAUUUUCGGCGGAUGCCUCCAAA [A15G C16U A48U],2.98e-05 ± 2.3e-05 s⁻¹
15,AUAAAAGCGCCAGCACUACAGAAAUGUAGUUGACGAGGAGGAGGUUCAUCGAAUUUUCGGCGGAUGCCGCAAAA [A14C U47C U69G C71A],4.4e-05 ± 2.5e-05 s⁻¹
16,AUAAAAGCGCCAGCACUACAGAAAUGUAGGUGACGAGGAGGAGGUUUAUCGGAUUUUCGGCGGAUGCCUCCAAA [A14C U30G A52G],2.67e-05 ± 2.2e-05 s⁻¹
17,AUAAAAGCGCCAGAGCUACAGAAAUGUAGUUGACGAGGAGGAGGUUUAUCGAAUUUUCGGCGGAUGGCUCGAAA [A15G C67G C71G],4.04e-05 ± 2.1e-05 s⁻¹

row,Variant,self-cleavage kobs at 640 uM GlcN6P
1,AUAAAAGCGCCUGAACUACAGAAAUGUAGUUGACGAGGAGGAGCUUUAUCGAUUUUUCGGCGGAUGCCUCCAAA [A12U G44C A53U],3.21e-05 ± 2.4e-05 s⁻¹
2,AUAAAAGCGCCAGGACUACAGAAAUGUAGUUCACGAGGAGGAGGUUUAUGGAAUUUUCGGCGGAUGCCUCCAAA [A14G G32C C50G],4.43e-05 ± 3.2e-05 s⁻¹
3,AUAAAAGCGCCACAACUACAGAAAUGUAGUUGACGAGGAGGAGGUUUAUCGAAAUUUCGGCGGAUGCCUCCAAA [G13C U54A],3.19e-05 ± 1.7e-05 s⁻¹
4,AUAAAAGCGCCAGGACUACAGAAAUGUAGUUGACGAGGAGGAGGUUUAUGGAAUUUUCGGCGGAUGCCUCCAAA [A14G C50G],4.95e-05 ± 4.5e-05 s⁻¹
5,AUAAAAGCGCCUGAACUACAGAAAUGUAGUUGACGAGGAGGAGGUUUAUGGAAUUUUCGGCGGAUGCCUCCAAA [A12U C50G],0.00102 ± 0.00058 s⁻¹
6,AUAAAAGCGCCACAUCUACAGAAAUGUAGUUGACGAGGAGGAGGUUUAUCUAAUUUUCGGCGGAUGUGUCCAAA [G13C A15U G51U C67U C68G],5.09e-05 ± 2.6e-05 s⁻¹
7,AUAAAAGCGCCACAACUACAGAAAUGUAGUUGACGAGGAGGAGGUUUAUCGAAUAUUCGGCGGAUGCCUACAAA [G13C U55A C70A],0.000501 ± 0.00032 s⁻¹
8,AUAAAAGCGCCAAAACUACAGAAAUGUAGUUGACGAGGAGGAGGUUUAUCGGAUUUUCGGCGGAUGCCUCCAAA [G13A A52G],2.36e-05 ± 1.7e-05 s⁻¹
9,AUAAAAGCGCCAGACCUACAGAAAUGUAGUUGACGGGGAGGAGGUUUAUGGAAUUUUCGGCGGAUGCCUCCAAA [A15C A36G C50G],3.02e-05 ± 2.9e-05 s⁻¹
10,AUAAAAGCGCCAGUACUACAGAAAUGUAGUUGAGGAUGAGGAGGUUUAUCGAAUUUUCGGCAGAUGCAUCCAAA [A14U C34G G37U G62A C68A],2.35e-05 ± 2.3e-05 s⁻¹
11,AUAAAAGCGCCGGAACUACAGAAAUGUAGAUGACGAGGAGGAGGUUUAUCGAAUUUUCGGCGGAUGCCUCCAAA [A12G U30A],1.81e-05 ± 1.4e-05 s⁻¹
12,AUAAAAGCGCCUGAACUACAGAAAUGUAGUUGACGAAGAGGAGGUUUAUCGAAUUUUCGGCGGAUGCCUGCAAA [A12U G37A C70G],1.32e-05 ± 1.1e-05 s⁻¹
13,AUAAAAGCGCCAGUACUACAGAAAUGUAGUUGACGAGGAGGAGGUUUAUAGAAUUUUCGGCGGAUGCCUCAAAA [A14U C50A C71A],4.76e-05 ± 3.5e-05 s⁻¹
14,AUAAAAGCGCCUGAACUACAGAAAUGUAGUUGACGAGGAGGAGGUUUAUUGAAUUUUCGGCGCAUAGCUCCAAA [A12U C50U G63C G66A C67G],4.01e-05 ± 3.2e-05 s⁻¹
15,AUAAAAGCGCCACAACUACAGAAAUGUAGUUGACGAGGAAGAGGUUUAUCGAAUUUUAGGCGGAUGCCUCCAAA [G13C G40A C58A],2.35e-05 ± 2.3e-05 s⁻¹
16,AUAAAAGCGCCAGACCUACAGAAAUGUAGUUGACGAGGAGGAGGUUUAUCGAAUUUUCGGCGGACGCCUCCAAA [A15C U65C],2.66e-05 ± 1.8e-05 s⁻¹

# Variants of: B1
# Experiment: self-cleavage kobs at 10000 uM GlcN6P; higher = faster cleavage; RNA array
# Details: with glucosamine-6-phosphate
# Method in brief: as §1
row,Variant,self-cleavage kobs at 10000 uM GlcN6P
1,AUAAAAGCGCCGGAACUACAGAAAUGUAGUUGACGAGGAGGAGGUUUAUCGAAUUUUCGGCGGAUGCGUCCAAA [A12G C68G],2.46e-05 ± 1.3e-05 s⁻¹

# Variants of: B1
# Experiment: self-cleavage kobs at 160 uM GlcN6P; higher = faster cleavage; RNA array
# Details: with glucosamine-6-phosphate
# Method in brief: as §1
row,Variant,self-cleavage kobs at 160 uM GlcN6P
1,AUAAAAGCGCCAGGACUACAGAAAUGUAGUUCACGAGGAGGAGGUUUAUGGAAUUUUCGGCGGAUGCCUCCAAA [A14G G32C C50G],3.35e-05 ± 2.3e-05 s⁻¹

# Variants of: B1
# Experiment: self-cleavage kobs at 2500 uM GlcN6P; higher = faster cleavage; RNA array
# Details: with glucosamine-6-phosphate
# Method in brief: as §1
row,Variant,self-cleavage kobs at 2500 uM GlcN6P
1,AUAAAAGCGCCAGGACUACAGAAAUGUAGUUCACGAGGAGGAGGUUUAUGGAAUUUUCGGCGGAUGCCUCCAAA [A14G G32C C50G],3.11e-05 ± 2.5e-05 s⁻¹
2,AUAAAAGCGCCAGACCUACAGAAAUGUAGUUGACGGGGAGGAGGUUUAUGGAAUUUUCGGCGGAUGCCUCCAAA [A15C A36G C50G],3.93e-05 ± 2.6e-05 s⁻¹
